Read-outs that look alike come from different tables or passages of the source. No constants are given. Whether binding was seen depends on the method and setting. Binding seen in cells or lysates may run through a third protein. Here binding means that the protein was enriched with, or labelled near, the bait; the list need not be complete.
B1: heterogeneous nuclear ribonucleoprotein M (hnRNPM) (protein, UniProt P52272 1-730)
chain: MAAGVEAAAEVAATEIKMEEESGAPGVPSGNGAPGPKGEGERPAQNEKRKEKNIKRGGNRFEPYANPTKRYRAFITNIPFDVKWQSLKDLVKEKVGEVTYVELLMDAEGKSRGCAVVEFKMEESMKKAAEVLNKHSLSGRPLKVKEDPDGEHARRAMQKVMATTGGMGMGPGGPGMITIPPSILNNPNIPNEIIHALQAGRLGSTVFVANLDYKVGWKKLKEVFSMAGVVVRADILEDKDGKSRGIGTVTFEQSIEAVQAISMFNGQLLFDRPMHVKMDERALPKGDFFPPERPQQLPHGLGGIGMGLGPGGQPIDANHLNKGIGMGNIGPAGMGMEGIGFGINKMGGMEGPFGGGMENMGRFGSGMNMGRINEILSNALKRGEIIAKQGGGGGGGSVPGIERMGPGIDRLGGAGMERMGAGLGHGMDRVGSEIERMGLVMDRMGSVERMGSGIERMGPLGLDHMASSIERMGQTMERIGSGVERMGAGMGFGLERMAAPIDRVGQTIERMGSGVERMGPAIERMGLSMERMVPAGMGAGLERMGPVMDRMATGLERMGANNLERMGLERMGANSLERMGLERMGANSLERMGPAMGPALGAGIERMGLAMGGGGGASFDRAIEMERGNFGGSFAGSFGGAGGHAPGVARKACQIFVRNLPFDFTWKMLKDKFNECGHVLYADIKMENGKSKGCGVVKFESPEVAERACRMMNGMKLSGREIDVRIDRNA
B2: ILF3/NF90 (protein, UniProt Q12906 1-894)
chain: MRPMRIFVNDDRHVMAKHSSVYPTQEELEAVQNMVSHTERALKAVSDWIDEQEKGSSEQAESDNMDVPPEDDSKEGAGEQKTEHMTRTLRGVMRVGLVAKGLLLKGDLDLELVLLCKEKPTTALLDKVADNLAIQLAAVTEDKYEILQSVDDAAIVIKNTKEPPLSLTIHLTSPVVREEMEKVLAGETLSVNDPPDVLDRQKCLAALASLRHAKWFQARANGLKSCVIVIRVLRDLCTRVPTWGPLRGWPLELLCEKSIGTANRPMGAGEALRRVLECLASGIVMPDGSGIYDPCEKEATDAIGHLDRQQREDITQSAQHALRLAAFGQLHKVLGMDPLPSKMPKKPKNENPVDYTVQIPPSTTYAITPMKRPMEEDGEEKSPSKKKKKIQKKEEKAEPPQAMNALMRLNQLKPGLQYKLVSQTGPVHAPIFTMSVEVDGNSFEASGPSKKTAKLHVAVKVLQDMGLPTGAEGRDSSKGEDSAEETEAKPAVVAPAPVVEAVSTPSAAFPSDATAEQGPILTKHGKNPVMELNEKRRGLKYELISETGGSHDKRFVMEVEVDGQKFQGAGSNKKVAKAYAALAALEKLFPDTPLALDANKKKRAPVPVRGGPKFAAKPHNPGFGMGGPMHNEVPPPPNLRGRGRGGSIRGRGRGRGFGGANHGGYMNAGAGYGSYGYGGNSATAGYSQFYSNGGHSGNASGGGGGGGGGSSGYGSYYQGDNYNSPVPPKHAGKKQPHGGQQKPSYGSGYQSHQGQQQSYNQSPYSNYGPPQGKQKGYNHGQGSYSYSNSYNSPGGGGGSDYNYESKFNYSGSGGRSGGNSYGSGGASYNPGSHGGYGGGSGGGSSYQGKQGGYSQSNYNSPGSGQNYSGPPSSYQSSQGGYGRNADHSMNYQYR
B3: hnRNPL (protein, UniProt P14866 1-589)
chain: MSRRLLPRAEKRRRRLEQRQQPDEQRRRSGAMVKMAAAGGGGGGGRYYGGGSEGGRAPKRLKTDNAGDQHGGGGGGGGGAGAAGGGGGGENYDDPHKTPASPVVHIRGLIDGVVEADLVEALQEFGPISYVVVMPKKRQALVEFEDVLGACNAVNYAADNQIYIAGHPAFVNYSTSQKISRPGDSDDSRSVNSVLLFTILNPIYSITTDVLYTICNPCGPVQRIVIFRKNGVQAMVEFDSVQSAQRAKASLNGADIYSGCCTLKIEYAKPTRLNVFKNDQDTWDYTNPNLSGQGDPGSNPNKRQRQPPLLGDHPAEYGGPHGGYHSHYHDEGYGPPPPHYEGRRMGPPVGGHRRGPSRYGPQYGHPPPPPPPPEYGPHADSPVLMVYGLDQSKMNCDRVFNVFCLYGNVEKVKFMKSKPGAAMVEMADGYAVDRAITHLNNNFMFGQKLNVCVSKQPAIMPGQSYGLEDGSCSYKDFSESRNNRFSTPEQAAKNRIQHPSNVLHFFNAPLEVTEENFFEICDELGVKRPSSVKVFSGKSERSSSGLLEWESKSDALETLGFLNHYQMKNPNGPYPYTLKLCFSTAQHAS

Chains of the proteins cited; added tags and fusions are not shown.
UniProt P46940: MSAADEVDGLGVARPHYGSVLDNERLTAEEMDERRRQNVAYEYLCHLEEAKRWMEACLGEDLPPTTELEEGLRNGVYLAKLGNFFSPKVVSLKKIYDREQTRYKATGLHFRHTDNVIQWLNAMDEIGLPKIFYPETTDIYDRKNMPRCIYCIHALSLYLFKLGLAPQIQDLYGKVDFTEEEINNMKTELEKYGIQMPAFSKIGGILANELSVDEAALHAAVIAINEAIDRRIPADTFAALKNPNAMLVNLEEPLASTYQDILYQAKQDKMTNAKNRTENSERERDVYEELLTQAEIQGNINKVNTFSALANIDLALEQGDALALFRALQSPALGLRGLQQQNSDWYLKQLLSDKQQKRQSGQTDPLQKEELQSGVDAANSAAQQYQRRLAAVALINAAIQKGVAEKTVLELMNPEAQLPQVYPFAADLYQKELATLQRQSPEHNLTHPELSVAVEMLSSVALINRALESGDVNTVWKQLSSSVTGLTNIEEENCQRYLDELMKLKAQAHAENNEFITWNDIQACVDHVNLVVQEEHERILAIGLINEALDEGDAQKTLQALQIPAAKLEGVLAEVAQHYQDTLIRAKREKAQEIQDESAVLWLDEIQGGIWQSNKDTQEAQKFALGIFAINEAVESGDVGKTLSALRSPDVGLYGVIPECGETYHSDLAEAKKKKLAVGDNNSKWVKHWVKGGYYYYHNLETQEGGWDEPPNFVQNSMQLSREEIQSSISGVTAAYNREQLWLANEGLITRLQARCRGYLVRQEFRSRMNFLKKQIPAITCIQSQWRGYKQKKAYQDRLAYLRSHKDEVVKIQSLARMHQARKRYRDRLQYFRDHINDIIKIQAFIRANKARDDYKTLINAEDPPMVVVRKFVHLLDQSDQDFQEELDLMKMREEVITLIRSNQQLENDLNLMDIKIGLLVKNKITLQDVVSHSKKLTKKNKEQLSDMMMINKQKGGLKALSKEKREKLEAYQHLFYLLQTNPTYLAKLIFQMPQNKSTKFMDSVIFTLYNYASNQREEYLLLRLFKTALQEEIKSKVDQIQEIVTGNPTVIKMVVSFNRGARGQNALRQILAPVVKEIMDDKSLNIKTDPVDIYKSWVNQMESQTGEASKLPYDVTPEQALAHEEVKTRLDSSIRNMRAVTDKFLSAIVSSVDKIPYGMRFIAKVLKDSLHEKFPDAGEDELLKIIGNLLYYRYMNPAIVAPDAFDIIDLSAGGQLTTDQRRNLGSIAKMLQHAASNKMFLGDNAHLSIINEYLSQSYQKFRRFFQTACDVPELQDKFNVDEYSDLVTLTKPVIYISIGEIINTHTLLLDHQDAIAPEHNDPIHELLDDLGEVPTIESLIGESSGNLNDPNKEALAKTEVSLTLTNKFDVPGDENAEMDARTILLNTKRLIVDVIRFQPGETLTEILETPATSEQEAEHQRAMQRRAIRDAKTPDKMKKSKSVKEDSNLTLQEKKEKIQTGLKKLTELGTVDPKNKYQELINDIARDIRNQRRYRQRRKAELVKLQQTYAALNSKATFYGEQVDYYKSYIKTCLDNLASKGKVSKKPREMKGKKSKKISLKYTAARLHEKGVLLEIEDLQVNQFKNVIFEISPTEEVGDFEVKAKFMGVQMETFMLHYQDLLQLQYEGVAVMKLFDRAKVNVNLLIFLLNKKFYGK
UniProt Q07955: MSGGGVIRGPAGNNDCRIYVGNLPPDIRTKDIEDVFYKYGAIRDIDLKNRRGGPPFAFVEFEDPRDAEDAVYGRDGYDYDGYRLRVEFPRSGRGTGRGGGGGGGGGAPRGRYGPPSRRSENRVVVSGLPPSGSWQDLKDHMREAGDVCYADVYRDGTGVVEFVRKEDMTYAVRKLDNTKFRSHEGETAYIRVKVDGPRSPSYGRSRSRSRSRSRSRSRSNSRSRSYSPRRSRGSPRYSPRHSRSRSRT
UniProt Q92841: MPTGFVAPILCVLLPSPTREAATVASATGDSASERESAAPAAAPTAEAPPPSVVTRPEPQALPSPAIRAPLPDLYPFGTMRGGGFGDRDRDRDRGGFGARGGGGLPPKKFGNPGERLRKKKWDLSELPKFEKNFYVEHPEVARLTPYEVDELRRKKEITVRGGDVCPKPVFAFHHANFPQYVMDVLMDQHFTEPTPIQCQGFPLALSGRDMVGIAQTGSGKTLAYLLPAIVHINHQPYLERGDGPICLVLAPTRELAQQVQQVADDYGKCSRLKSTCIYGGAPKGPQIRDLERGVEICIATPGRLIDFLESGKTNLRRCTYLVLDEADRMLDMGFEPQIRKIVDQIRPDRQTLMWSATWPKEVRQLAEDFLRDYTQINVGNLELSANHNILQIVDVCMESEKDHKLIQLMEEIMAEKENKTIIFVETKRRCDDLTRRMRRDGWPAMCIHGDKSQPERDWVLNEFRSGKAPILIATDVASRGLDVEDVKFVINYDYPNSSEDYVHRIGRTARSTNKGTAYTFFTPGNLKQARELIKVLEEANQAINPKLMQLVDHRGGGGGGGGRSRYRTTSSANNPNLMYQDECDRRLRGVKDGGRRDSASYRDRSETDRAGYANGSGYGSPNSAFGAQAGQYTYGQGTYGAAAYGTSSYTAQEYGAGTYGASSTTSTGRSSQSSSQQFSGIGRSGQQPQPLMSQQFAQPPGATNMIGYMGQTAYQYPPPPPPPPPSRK
UniProt Q16630: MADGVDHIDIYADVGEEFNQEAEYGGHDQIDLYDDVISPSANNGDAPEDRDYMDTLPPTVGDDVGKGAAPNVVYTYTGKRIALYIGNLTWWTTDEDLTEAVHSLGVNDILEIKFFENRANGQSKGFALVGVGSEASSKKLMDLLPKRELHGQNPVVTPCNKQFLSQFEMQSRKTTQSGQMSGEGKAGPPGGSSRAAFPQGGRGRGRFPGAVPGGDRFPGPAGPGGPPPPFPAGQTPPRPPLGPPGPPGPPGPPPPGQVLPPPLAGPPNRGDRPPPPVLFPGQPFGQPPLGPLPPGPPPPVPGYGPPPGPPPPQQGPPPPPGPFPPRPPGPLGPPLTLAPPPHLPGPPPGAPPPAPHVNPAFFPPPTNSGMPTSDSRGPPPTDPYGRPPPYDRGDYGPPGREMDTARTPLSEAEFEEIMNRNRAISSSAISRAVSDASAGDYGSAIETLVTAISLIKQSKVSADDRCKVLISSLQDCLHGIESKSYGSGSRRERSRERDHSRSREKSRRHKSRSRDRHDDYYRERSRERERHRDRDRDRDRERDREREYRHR

Key:
[1] = target: IQGAP1 (IQ Motif Containing GTPase Activating Protein 1) (human (endogenous in NUGC4 and MKN45)) (UniProt P46940); assay: affinity purification with mass spectrometry
[2] = target: IQGAP1 (IQ Motif Containing GTPase Activating Protein 1) (human (endogenous in NUGC4 and MKN45)) (UniProt P46940); assay: affinity purification with mass spectrometry; remark: listed apart in the source

Row | Molecule | binding [1] | binding [2]
1 | SRSF1 (from UniProt Q07955 1-248) | binds | 
2 | DDX17 (from UniProt Q92841 1-729) | binds | 
3 | CPSF6 (from UniProt Q16630 1-551) | binds | 
4 | B1 |  | binds
5 | B2 |  | binds
6 | B3 |  | binds

Source: publication doi:10.1101/2020.05.11.089656
